Reference: PubChem BioAssay AID2685 (National Center for Advancing Translational Sciences (NCATS), 2010)
Some of the results follow. Shown are side measurements of this screen, not its main read-out; they come without a call. The list favours compounds with an active or inconclusive main result. The note in brackets gives the kind of curve behind each potency; many fits are weak.

Assay: qHTS Assay for Lipid Storage Modulators in Drosophila S3 Cells;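 as to cell number change: cells counted by Cell Tracker Red CMTPX staining in the red channel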
Details: BODIPY lipid droplet fluorescence, 18-24 h; for cell number change: measured here: cell count max response, cells fed with added oleic acid
Summary of the method: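 Laser-scanning cytometry quantifies lipid droplet accumulation (500–530 nm total intensity; droplet/cell object ratio) in oleic acid-fed (400 uM added) Drosophila S3 cells treated with a concentration series. 20 uM Triacsin C defined 100% inhibition.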

[1] = measured here: lipid fluorescence (Fed channel) AC50, cells fed with added oleic acid
[2] = measured here: cell number channel AC50, cells fed with added oleic acid

Row | Compound | cell number change | AC50 [1] | AC50 [2]
1 | CCCc1nc2sc3ccccc3c(=O)c2c(=O)n1Cc1ccco1 | -18.2% | 0.517 µM [falling, full curve] | 
2 | S=c1[nH]nc(COc2ccccc2)n1C1CCCCC1 |  |  | 0.731 µM [rising, single point]
3 | Cc1cccc(NC(=S)N(CCc2nc3cc(C)c(C)cc3[nH]2)Cc2cccnc2)c1 | -20.3% |  | 0.146 µM [falling, full curve, poor fit]
4 | CC(=O)Nc1cccc(NC(=O)CSc2nnc3ccc(-c4ccncc4)nn23)c1 | -14% |  | 
5 | Cc1ccc(NC(=O)C(=O)NCCN2CCN(S(C)(=O)=O)CC2)cc1 | 33.6% | 0.082 µM [falling, full curve, poor fit] | 
6 | C/C(=C\c1ccccc1)C(=O)N1CCN(Cc2ccc3c(c2)OCO3)CC1 | 6.04% | 29.1 µM [falling, single point] | 
7 | O=c1cc(CN2CCN(c3ccc(F)cc3)CC2)nc2sccn12 | 130% |  | 
8 | Cc1cc(=O)n2nc(N3CCC(C(=O)NCC(C)c4ccccc4)CC3)sc2n1 (stereo unspecified) | 11.5% |  | 
9 | COc1ccc(CN2C(=O)c3cccnc3C2=O)cc1S(=O)(=O)NC1CCCCC1 | -39.4% |  | 29.1 µM [falling, single point]
10 | Cc1ccc(C(=O)NC2CCCN(c3ccc(C(F)(F)F)cn3)C2)cn1 (stereo unspecified) | 30.8% | 12.6 µM [rising, partial curve] | 20 µM [rising, partial curve, poor fit]
11 | CCC(c1c(C)[nH]oc1=O)c1c(C)[nH]oc1=O | -15.6% | 0.92 µM [falling, full curve, poor fit] | 
12 | CCC(C)N1C(=O)c2ccccc2C1C(=O)NC1CCCCCC1 (stereo unspecified) | -55.4% | 10.3 µM [falling, partial curve] | 10.3 µM [falling, partial curve, poor fit]
13 | Cc1cccn2c(=O)c3cc(C(=O)N4CCOCC4)n(C)c3nc12 | 1.3% | 0.116 µM [falling, full curve, poor fit] | 
14 | Cc1ccc(CCC(=O)Nc2ccc(C#N)cc2)o1 | 1.77% | 6.51 µM [rising, single point] | 
15 | C=CCC1=C/C(=C\c2c(N)n3nc(CC(=O)N4CCCC4)sc3nc2=O)C=C(OC)C1=O | -60.4% | 5.17 µM [falling, single point] | 29.1 µM [falling, partial curve, poor fit]
16 | O=C(CN1C(=O)c2cccnc2Oc2ccc(Cl)cc21)NC1CCCCCC1 | 1.49% | 0.092 µM [falling, full curve] | 0.0326 µM [falling, full curve, poor fit]
17 | CCn1c(SCC(=O)N=Nc2c(O)[nH]c3ccccc23)nnc1-c1ccc(C(C)(C)C)cc1 | 1.81% |  | 
18 | CCOc1ccc(NS(=O)(=O)c2ccc(C(=O)NC3CCN(Cc4ccccc4)CC3)cc2)cc1 | 27.3% | 13 µM [rising, partial curve] | 
19 | CCCS(=O)(=O)Nc1cccc(-c2nc3cccnc3s2)c1 | 21.5% | 25.9 µM [rising, single point] | 
20 | COc1c(Cl)cc(C(=O)Nc2ccc(Cl)cn2)cc1Cl | -61.5% |  | 7.31 µM [falling, partial curve, poor fit]

Row | Compound | cell number change | AC50 [1] | AC50 [2]
21 | CCC(=O)Nc1ccc(NC(=O)c2ccccc2)nc1 | -28.1% | 6.51 µM [falling, single point] | 
22 | CN(C)S(=O)(=O)c1ccc(Cl)c(NC(=O)COC(=O)CNC(=O)c2ccco2)c1 | 8.25% |  | 
23 | COc1ccccc1CCN=C(N)NS(=O)(=O)c1ccc(F)cc1 | 0.875% |  | 6.51 µM [rising, single point]
24 | C=CCNC(=O)/C(=C\c1ccc(Br)cc1)NC(=O)c1ccccc1OC | 44.9% |  | 29.1 µM [rising, single point]
25 | O=C(NC1CC2CCC(C1)N2Cc1nnnn1Cc1ccco1)NC12CC3CC(CC(C3)C1)C2 (stereo unspecified) | -13.6% |  | 0.651 µM [falling, full curve, poor fit]
26 | CCCc1nc2oc3c(NCC(C)O)ncnc3c2c2c1CCCC2 (stereo unspecified) | 6.4% | 6.51 µM [rising, partial curve] | 
27 | O=C(CSc1ncnc2c1cnn2-c1cccc(Cl)c1)NCC1CCCO1 (stereo unspecified) | -12.1% | 15.8 µM [falling, single point] | 
28 | O=C(COc1ccc([N+](=O)[O-])cc1)Nc1ccc(C(=O)NCc2cccnc2)cc1 | 4.31% | 0.326 µM [rising, full curve] | 
29 | O=C(CCN1CCN(c2ccccc2)CC1)NNC(=O)Cc1ccccc1Cl | 24.6% | 0.651 µM [rising, partial curve, poor fit] | 
30 | C/C(Cn1cnc([N+](=O)[O-])n1)=N/NC(=O)COc1ccccc1Cl | 92.3% | 6.51 µM [rising, partial curve] | 29.1 µM [rising, single point]
31 | CCN(CC)S(=O)(=O)c1ccc(C(=O)NNc2nc(-c3ccccc3)c3cc(Br)ccc3n2)cc1 | 8.16% |  | 
32 | N#Cc1c(/N=C/c2ccc(-c3ccccc3C(=O)O)o2)sc2c1CCCC2 | 22.1% | 13 µM [rising, partial curve, poor fit] | 
33 | CCN(CC)C(=S)SC1CCCCN(C(=O)c2ccc(F)cc2)C1=O (stereo unspecified) | 37.8% | 32.6 µM [rising, partial curve, poor fit] | 29.1 µM [rising, single point]
34 | COc1ccc(C(=O)N(CCc2ccccc2)Cc2ccccc2)cc1S(=O)(=O)N1CCOCC1 | -26.2% | 2.91 µM [falling, partial curve, poor fit] | 
35 | CSc1cccc(NC(=O)CCCNC(=O)c2ccc(Cl)cc2)c1 | 4.7% |  | 
36 | Cc1nn(CC(=O)N2CCCc3ccccc32)c(C)c1[N+](=O)[O-] | 5.33% | 23.1 µM [rising, single point] | 
37 | O=[N+]([O-])c1ccc(COc2ccc(CNc3ccccc3)cc2)cc1 | -35.9% | 0.731 µM [falling, single point] | 32.6 µM [falling, partial curve, poor fit]
38 | O=C(CSc1nnc(-c2ccccc2)n1-c1ccccc1)NCc1ccco1 | 24.8% |  | 
39 | COc1ccc(S(=O)(=O)N2CCC(C(=O)NCc3ccncc3)CC2)cc1OC | 6.84% | 23.1 µM [rising, single point] | 
40 | Clc1ccc2nc(N3CCCCC3)sc2c1 | -23.5% | 18.4 µM [falling, single point] | 

Three entries from above, comma-delimited.
Row,Compound,cell number change,AC50 [1],AC50 [2]
28,O=C(COc1ccc([N+](=O)[O-])cc1)Nc1ccc(C(=O)NCc2cccnc2)cc1,4.31%,"0.326 µM [rising, full curve]",
29,O=C(CCN1CCN(c2ccccc2)CC1)NNC(=O)Cc1ccccc1Cl,24.6%,"0.651 µM [rising, partial curve, poor fit]",
30,C/C(Cn1cnc([N+](=O)[O-])n1)=N/NC(=O)COc1ccccc1Cl,92.3%,"6.51 µM [rising, partial curve]","29.1 µM [rising, single point]"

Later entries.

Row | Compound | cell number change | AC50 [1] | AC50 [2]
41 | O=S(=O)(NCCc1ccccn1)c1ccc(OC(F)(F)F)cc1 | 51.9% | 3.26 µM [rising, partial curve, poor fit] | 10.3 µM [rising, partial curve, poor fit]
42 | Cc1ccccc1-c1nc2cc(N)ccc2o1 | -11.2% | 0.92 µM [rising, full curve, poor fit] | 
43 | c1ccc(C2=NNC(=NC3CC3)SC2)cc1 | 57.8% |  | 29.1 µM [rising, single point]
44 | Cc1ccc(C)c(NC(=S)NNC(=O)c2csc(C)c2)c1 |  |  | 2.91 µM [rising, single point]
45 | CCn1nc(C(=O)Nc2nc(-c3ccccn3)cs2)c2ccccc2c1=O | 17.7% | 0.82 µM [rising, full curve, poor fit] | 
46 | Cc1cc(C(C)(C)C)oc1C(=O)OCC(=O)NC1CCCCC1 | 30.2% | 2.06 µM [rising, full curve] | 0.326 µM [rising, full curve]
47 | COC(=O)C1=C(C)N(c2ccc(Cl)c(Cl)c2)C(=O)C1 | -22.5% | 18.4 µM [falling, partial curve] | 
48 | CC1(C)CC(=O)C2=C(C1)NC(=O)CC2c1ccc(F)cc1 (stereo unspecified) | 6.11% | 0.82 µM [falling, full curve] | 
49 | CS(=O)(=O)c1ccc2nc(NC(=O)c3ccc(Cl)cc3)sc2c1 | -6.67% | 20.6 µM [rising, single point] | 
50 | CC(C)(C)n1nnnc1C(c1ccccn1)N1CCN(C(c2ccccc2)c2ccccc2)CC1 (stereo unspecified) | 7.11% | 1.3 µM [rising, partial curve] | 
51 | COC(=O)c1ccc(NC2CC(=O)N(c3ccccc3C)C2=O)cc1 (stereo unspecified) | 13.4% |  | 
52 | COc1ccc(-c2noc(N3CCC(C(=O)NCc4ccccc4Cl)CC3)n2)cc1 | 32.6% | 18.4 µM [falling, single point] | 0.184 µM [rising, partial curve, poor fit]
53 | CCOc1ccc(N2CCn3c2nc2c3c(=O)n(CCc3ccccc3)c(=O)n2C)cc1 | 36.5% | 1.3 µM [rising, full curve] | 1.16 µM [rising, full curve, poor fit]
54 | O=C(CN1CCN(c2ccccc2O)CC1)Nc1ccc(S(=O)(=O)N2CCCCCC2)cc1 |  |  | 6.51 µM [rising, single point]
55 | O=C(COc1ccc2c(c1)OCO2)NC12CC3CC(CC(C3)C1)C2 |  |  | 6.51 µM [falling, partial curve, poor fit]
56 | CC(=O)OC1C(OC(C)=O)N(C(C)=O)C(=O)N1C(C)=O (stereo unspecified) | -10.9% | 1.84 µM [falling, full curve] | 
57 | C/C(=N\Nc1nccnc1Cl)c1ccc(Cl)c(Cl)c1 | 6.93% | 0.58 µM [rising, single point] | 
58 | Cn1nc(C(C)(C)C)c([N+](=O)[O-])c1C(=O)Nc1ccccc1 | 2% | 29.1 µM [rising, single point] | 
59 | CC1CCc2c(sc3ncnc(NCCCOC(C)C)c23)C1 (stereo unspecified) | 15.5% | 1.84 µM [rising, partial curve] | 
